Results deposited as PubChem BioAssay AID504804 (Drosophila RNAi Screening Center, 2011)
In all, the deposit lists about 19,000 reagents; shown is an unselected part of those that have a named target and a result. Of all reagents, 47 (0.25%) are marked active. 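Signals are raw, not normalised; exact z-scores behind calls not deposited; actives needed confirmation, so some wells reaching 2 SD are inactive.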 Unmarked entries are inactive.

- Assay: 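Knock-downs shielding fly cells from apoptosis caused by DNA damage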 (primary screen)
- System: Drosophila Kc cells
- Reagents: long dsRNA against Drosophila genes, 0.5 µg dsRNA per well
- Time to read-out: 96 h (48 h knock-down, then 48 h drug)
- Challenge: doxorubicin 5 µg/ml for 48 h, added 48 h after dsRNA
- Detection: 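Luminescent ATP counts per replicate, not normalised, reflecting viable cells after 48 h dsRNA knock-down followed by 48 h of 5 µg/ml doxorubicin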
- Scale: raw ATP luminescence: higher = more viable cells, protection from doxorubicin
- Rule for the call: 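z-score of 2 or more over plate mean in both duplicates, retained only when retests and separate dsRNAs confirm the protection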

SD above plate mean | raw ATP luminescence, replicate 1 | raw ATP luminescence, replicate 2 | gene | dsRNA
– | 1.74e5 | 2.31e5 | CG30148 | DRSC06391
– | 50020 | 58333 | CG9967 | DRSC00742
– | 57723 | 63220 | CG31741 | DRSC02887
– | 56687 | 63617 | Alg12 (Alg12 alpha-1,6-mannosyltransferase) | DRSC16416
– | 74437 | 99243 | CG42715 (retired record) | DRSC05499
– | 73877 | 81163 | CG17698 | DRSC11907
– | 73430 | 40377 | wech | DRSC06606
– | 2.63e5 | 2.52e5 | BBS4 (Bardet-Biedl syndrome 4) | DRSC06352
– | 44490 | 37370 | CG14627 | DRSC18630
– | 66713 | 66000 | CG11286 | DRSC14293
2 to 3 SD above plate mean | 1.05e5 | 1.05e5 | Usp15-31 (Ubiquitin specific protease 15/31) | DRSC04426
– | 32107 | 41537 | Usp15-31 (Ubiquitin specific protease 15/31) | DRSC04532
– | 44040 | 51150 | AdamTS-B (ADAM metallopeptidase with thrombospondin type 1 motif B) | DRSC18346
– | 67820 | 68407 | Mtr3 | DRSC10953
– | 78837 | 55277 | Vps13D (Vacuolar protein sorting 13D) | DRSC09818
– | 81573 | 65340 | Vps13D (Vacuolar protein sorting 13D) | DRSC09819
– | 71730 | 59880 | CG33111 | DRSC14208
– | 71980 | 71560 | CG33111 | DRSC14444
– | 54470 | 86500 | rho-5 (rhomboid-5) | DRSC02847
– | 3.65e5 | 3.10e5 | CG34324 | DRSC19502
– | 30950 | 41980 | CG14245 | DRSC14740
– | 69830 | 77117 | Lsp2 (Larval serum protein 2) | DRSC09841
– | 65170 | 81317 | Lsp2 (Larval serum protein 2) | DRSC11216
– | 19870 | 22097 | Hem (HEM-protein) | DRSC11865
– | 54353 | 89710 | CPT2 (Carnitine palmitoyltransferase 2) | DRSC08553
– | 29523 | 28063 | Eip78C (Ecdysone-induced protein 78C) | DRSC11864
– | 1.06e5 | 65277 | Pfas (Phosphoribosylformylglycinamidine synthase) | DRSC03480
– | 80143 | 38073 | CG11975 | DRSC14452
at least 2 SD above plate mean | – | – | CG2962 | DRSC18247
– | 62887 | 57413 | Septin5 (Septin 5) | DRSC06843
– | 37557 | 36603 | Ythdc1 (YTH domain containing 1) | DRSC08141
– | 24537 | 23527 | Gagr (Gag-related) | DRSC10441
– | 22220 | 30863 | CG11929 | DRSC00339
– | 73540 | 53147 | PIG-H (Phosphatidylinositol glycan anchor biosynthesis class H) | DRSC14856
– | 45440 | 53600 | CG14778 | DRSC17953
– | 75130 | 57350 | Grd (Glycine receptor) | DRSC11178
– | 79527 | 68027 | Est-6 (Esterase 6) | DRSC11162
– | 48517 | 55630 | NANS (N-acetylneuraminic acid synthase) | DRSC15743
– | 55600 | 31787 | side-VII (sidestep VII) | DRSC14578
– | 62310 | 62050 | CG7016 | DRSC16174
– | 65700 | 90210 | CG42788 | DRSC15330
– | 54890 | 63010 | CG42788 | DRSC16139
– | 59010 | 68350 | CG42788 | DRSC16152
– | 19613 | 26680 | CG3213 | DRSC00576
– | 63573 | 54010 | wnd (wallenda) | DRSC09626
– | 21527 | 23520 | wnd (wallenda) | DRSC11046
– | 56753 | 64800 | Cpr76Bd (Cuticular protein 76Bd) | DRSC11063
– | 56027 | 62160 | Hsepi (Heparan sulfate C5-epimerase) | DRSC04986
– | 65530 | 88837 | lncRNA:CR42862 (long non-coding RNA:CR42862) | DRSC08348
– | 50960 | 56040 | krz (kurtz) | DRSC16979
– | 89720 | 86190 | CG31267 | DRSC15748
– | 54367 | 56970 | Rsbp15 (Radial spoke binding protein 15) | DRSC14176
– | 39770 | 34750 | CG12883 | DRSC14570
– | 2.03e5 | 2.36e5 | CG33159 | DRSC08199
– | 72313 | 74470 | CG13185 | DRSC06310
– | 68567 | 62330 | Pss (Phosphatidylserine synthase) | DRSC11757
– | 20203 | 21860 | Pgm1 (Phosphoglucose mutase 1) | DRSC10490
– | 2.28e5 | 3.51e5 | Gr22e (Gustatory receptor 22e) | DRSC20912
– | 1.00e5 | 1.00e5 | CG8562 | DRSC10995
– | 51617 | 20643 | soti (scotti) | DRSC16432
– | 43923 | 47957 | Pisd (Phosphatidylserine decarboxylase) | DRSC15935
– | 36517 | 51460 | Gdh (Glutamate dehydrogenase) | DRSC16679
– | 3.49e5 | 3.16e5 | CG12481 | DRSC19461
– | 40887 | 55310 | spag (spaghetti) | DRSC04717
– | 1.92e5 | 2.38e5 | Prp5 (pre-mRNA processing factor 5) | DRSC19975
– | 66440 | 1.03e5 | CG34243 (retired record) | DRSC09291
– | 78473 | 1.18e5 | CG34243 (retired record) | DRSC09292
– | 54453 | 66127 | CG8314 | DRSC07144
– | 1.86e5 | 1.94e5 | CG13717 (retired record) | DRSC08116
– | 94293 | 96920 | CG13717 (retired record) | DRSC08324
– | 77723 | 66920 | CG13717 (retired record) | DRSC08326

Continued (14 carried over from the part before).
SD above plate mean | raw ATP luminescence, replicate 1 | raw ATP luminescence, replicate 2 | gene | dsRNA
– | 2.28e5 | 3.51e5 | Gr22e (Gustatory receptor 22e) | DRSC20912
– | 1.00e5 | 1.00e5 | CG8562 | DRSC10995
– | 51617 | 20643 | soti (scotti) | DRSC16432
– | 43923 | 47957 | Pisd (Phosphatidylserine decarboxylase) | DRSC15935
– | 36517 | 51460 | Gdh (Glutamate dehydrogenase) | DRSC16679
– | 3.49e5 | 3.16e5 | CG12481 | DRSC19461
– | 40887 | 55310 | spag (spaghetti) | DRSC04717
– | 1.92e5 | 2.38e5 | Prp5 (pre-mRNA processing factor 5) | DRSC19975
– | 66440 | 1.03e5 | CG34243 (retired record) | DRSC09291
– | 78473 | 1.18e5 | CG34243 (retired record) | DRSC09292
– | 54453 | 66127 | CG8314 | DRSC07144
– | 1.86e5 | 1.94e5 | CG13717 (retired record) | DRSC08116
– | 94293 | 96920 | CG13717 (retired record) | DRSC08324
– | 77723 | 66920 | CG13717 (retired record) | DRSC08326
– | 56690 | 47640 | CG14803 | DRSC18556
– | 49883 | 47737 | RpL24 (Ribosomal protein L24) | DRSC03185
– | 2.38e5 | 2.31e5 | pigs (pickled eggs) | DRSC17472
– | 27410 | 34550 | pigs (pickled eggs) | DRSC18334
– | 23430 | 36590 | pigs (pickled eggs) | DRSC18335
– | 66277 | 68707 | CG15142 | DRSC02443
– | 1.16e5 | 99567 | Cyp4ac3 (Cytochrome P450 4ac3) | DRSC03304
– | 2.60e5 | 2.72e5 | Gpa2 (Glycoprotein hormone alpha 2) | DRSC21071
– | 3.86e5 | 3.90e5 | CG2533 | DRSC19855
– | 22707 | 31530 | CG18304 | DRSC02664
– | 70723 | 68830 | GM130 (Golgi matrix protein 130 kD) | DRSC04617
– | 70920 | 67480 | GstE12 (Glutathione S transferase E12) | DRSC04047
– | 56060 | 40230 | CG15515 | DRSC15054
– | 45730 | 21253 | ry (rosy) | DRSC17048
– | 65187 | 67817 | Toll-9 | DRSC11776
– | 1.01e5 | 55683 | CG9377 | DRSC03217
– | 76930 | 61200 | CG4520 | DRSC15590
– | 3.18e5 | 3.09e5 | CG34348 | DRSC19425
– | 3.82e5 | 3.60e5 | CG34348 | DRSC19644
– | 67780 | 59903 | Uba1 (Ubiquitin activating enzyme 1) | DRSC07567
– | 15070 | 18760 | CG31058 (retired record) | DRSC15840
– | 75033 | 63187 | CG3014 | DRSC15458
– | 47923 | 49300 | Syx18 (Syntaxin 18) | DRSC14628
– | 38700 | 39490 | rtp (retinophilin) | DRSC12132
– | 44590 | 83863 | lectin-30A | DRSC02560
– | 40113 | 57070 | CG8679 | DRSC03109
– | 51190 | 49453 | Obp59a (Odorant-binding protein 59a) | DRSC04160
– | 52270 | 42880 | pst (pastrel) | DRSC11003
– | 53760 | 54993 | lab (labial) | DRSC12627
– | 51080 | 46360 | CG15553 | DRSC15091
– | 65753 | 76543 | CG12984 | DRSC11693
– | 71363 | 72923 | Loxl2 (Lysyl oxidase-like 2) | DRSC04469
– | 71177 | 62407 | Pex14 (Peroxin 14) | DRSC11754
– | 91710 | 75760 | obst-G (obstructor-G) | DRSC11103
– | 25220 | 39020 | CG43707 | DRSC00280
– | 58990 | 47790 | Sas-6 (Spindle assembly abnormal 6) | DRSC15061
